# From publication PMC4993509 (PLoS ONE, 2016)
# No constants are given. Whether binding was seen depends on the method and setting.
# What was measured:
# [1] = molecular target: SYCP1 CC D700R, K764E double mutant (human) (UniProt Q15431); assay: SEC; Superdex 200 gel filtration, 20 mM Tris-HCl pH 8.0, 150 mM NaCl; wild type and double mutant compared; both purified
# [2] = molecular target: SYCP1 CC D700R, K764E double mutant (human) (UniProt Q15431); assay: SEC-MALS; Superdex 200 HR 10/30 coupled to three-angle light scattering (mini-DAWN EOS) and refractive index detector, flow 0.2 ml/min; both purified
binder,measurement,setting,value
"SYCP1 CC D700R, K764E double mutant (domain or fragment, UniProt Q15431 662-801) DTYQKEIEDKKISEENLLEEVEKAKVIADEAVKLQKEIRKRCQHKIAEMVALMEKHKHQYDKIIEERDSELGLYKSKEQEQSSLRASLEIELSNLKAELLSVEKQLEIEREEKEKLKREAKENTATLKEKKDKKTQTFLL",binding,[1],no binding
same,binding,[2],no binding
